15 compounds from PubChem BioAssay AID2685 (National Center for Advancing Translational Sciences (NCATS), 2010) can be followed below.

SMILES strings stand for the structures. This is one part of the list. Further columns of the screen follow, without active or inactive calls. Compounds called inactive in the main read-out are mostly missing here. The note in brackets gives the kind of curve behind each potency; many fits are weak.

The experiment in a line: qHTS Assay for Lipid Storage Modulators in Drosophila S3 Cells.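 As to cell number change: cells counted by Cell Tracker Red CMTPX staining in the red channel.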 Particulars: BODIPY lipid droplet fluorescence, 18-24 h; for cell number change: measured here: cell count max response, cells fed with added oleic acid. An outline of the steps:
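Drosophila S3 cells loaded with oleic acid (400 uM, as added) and compounds at several concentrations; lipid droplets imaged by 488-nm laser-scanning cytometry, 500–530 nm intensity and object ratio to cell channel. Percent activity normalized to 20 uM Triacsin C.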
A general note: Quantitative high-throughput screening tests each substance at several concentrations.

The mark [1] stands for this setting: measured here: cell number channel AC50, cells fed with added oleic acid.
[2] abbreviates: measured here: lipid fluorescence (Fed channel) AC50, cells fed with added oleic acid.

By AC50 is commonly meant the concentration at which the activity in the assay is half-maximal. A high value points to weaker potency. Regarding `COc1ccc(-c2cc(N)n(S(=O)(=O)c3c(F)c(F)c(F)c(F)c3F)n2)cc1OC`, the cell number change is -44%. The AC50 under setting [1] is 16.4 µM [falling, partial curve, poor fit]. Further, under setting [2], the AC50 is 29.1 µM [falling, single point].

On to `CN1CCN(C(=O)c2cc3nc(-c4ccc(F)cc4)cc(C(F)(F)F)n3n2)CC1`, for which the cell number change worked out at 11.9%.

For `CCC(Cc1ccccc1)NS(=O)(=O)c1c(C)nc2sccn2c1=O` (stereo unspecified), the cell number change stood at 13.8%.

For the compound `Cc1cccc(Nc2cnn(C34CC5CC(CC(CC(=O)O)(C5)C3)C4)c(=O)c2Cl)c1`, the cell number change was -30%. For the same compound, under setting [1], the AC50 is 0.651 µM [falling, full curve, poor fit]. The AC50 under setting [2] was 23.1 µM [falling, partial curve].

As to `COc1ccccc1Nc1nc(N)nc(CSC(=S)N2CCCCC2)n1`, the cell number change stood at 17.8%. The half-maximal activity concentration (AC50) under setting [2] was 0.116 µM [rising, full curve].

Turning to `COC(=O)c1cc(C(=O)OC)cc(N2C(=O)CC(NNC(=O)c3ccc(C)cc3)C2=O)c1` (stereo unspecified), the cell number change is 47.9%. Moreover, under setting [1], the AC50 is 29.1 µM [rising, single point]. In addition, under setting [2], the AC50 was 0.164 µM [falling, full curve, poor fit].

As to `Cc1ccccc1NC(=O)C(=O)NC(C)CCc1ccccc1` (stereo unspecified), the AC50 under setting [2] was 16.4 µM [falling, partial curve].

On to `CCOC(=O)CCCNC(=O)CN1C(=O)NC(c2ccccc2)(c2ccccc2)C1=O`, for which the cell number change is 11.7%. Moreover, under setting [2], the concentration at half-maximal activity (AC50) was 0.58 µM [rising, single point].

`COc1ccc(S(=O)(=O)Nc2ccc(OCC(=O)O)cc2)c2ccccc12`: the cell number change was found to be 6.85%. Under setting [2], the AC50 was 29.1 µM [falling, single point].

Take `COc1ccc(C2c3sc(=O)[nH]c3SC3C4CCC(C4)C23)cc1` (stereo unspecified): the cell number change amounted to 71.1%. Moreover, the AC50 under setting [1] is 5.8 µM [rising, full curve]. Moreover, under setting [2], the AC50 is 7.31 µM [rising, partial curve].

Turning to `COCCn1c(-c2ccccc2)nc2c(c(=O)c3ccccc3n2C)c1=O`, the cell number change is 16.8%. The AC50 under setting [2] is 0.058 µM [rising, full curve, poor fit].

`O=C(O)C1CSC(c2coc3ccccc3c2=O)N1` (stereo unspecified): the cell number change was 58.3%. Moreover, the AC50 under setting [1] was 29.1 µM [rising, single point]. Moreover, under setting [2], the AC50 was 29.1 µM [rising, single point].

For the compound `O=C(CN(Cc1ccccc1C(F)(F)F)C(=O)CNC(=O)c1ccco1)NC1CCCC1`, the cell number change was 15.8%. For the same compound, the AC50 under setting [2] was 0.13 µM [falling, full curve, poor fit].

Regarding `CC(O)c1nc2ccccc2n1CC(=O)Nc1ccc2c(c1)OCCO2` (stereo unspecified), the cell number change was found to be 10%. Also, the AC50 under setting [1] is 1.64 µM [rising, partial curve, poor fit].

With `CCOc1ccc(NC(=O)CCC(=O)Oc2ccc(C)cc2)cc1`, the cell number change worked out at 28.1%.
